Drawing on PubChem BioAssay AID264 (DTP/NCI, 2004), this text covers T/C and survivor count for 21 molecules.

Structures are written as SMILES. The list does not hold the whole screen: it gathers tests that were run many times, whatever their T/C, doses with no T/C, and many T/C values between a quarter and a half above the control. Further doses and runs are listed elsewhere. T/C is the treated group as % of the vehicle group. Schedules are NCI's codes, read here as Q, the interval in days (D) or hours (H), X, the number of doses. Some T/C values are followed by the survivors on the day toxicity was checked, most often the fifth; without a count, all were alive then. Some T/C values are negative: the treated tumours shrank. Some entries hold several experiments; the values are given in rising order. Some entries give survivors of the animals treated and no T/C: the source holds a T/C of zero for them, seemingly a mark for toxic or unscored doses. Counts of survivors are from the toxicity check (mostly the fifth day) where no day follows; animals may have died later.

This assay deals with nude mice, LX-1 lung xenograft intrarenal, tumor weight T/C. Nature of the assay: NCI In Vivo Anticancer Drug Screen. Data for tumor model Human Lung LX-1 Xenograft (intrarenal inoculation) in NU/NU Swiss (nude) mice. The conditions noted are these: T/C endpoint: mean tumor weight change, higher T/C = larger tumour; for T/C: evaluated on day 11. The method in brief:
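Compound-treated mice carrying transplanted tumors were compared with vehicle-treated controls. Tumor size was the measured end point, and the value is the treated-group measurement divided by the control-group measurement (T/C).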
For orientation: In xenograft studies the graft and the host belong to different species.

The mark [1] stands for this setting: dose: 8.0 mg/kg/injection, schedule: Q01DX010 (sc), vehicle: saline.
The mark [2] stands for this setting: dose: 16.0 mg/kg/injection, schedule: Q01DX010 (sc), vehicle: saline.
The mark [3] stands for this setting: dose: 2400.0 mg/kg/injection, schedule: Q04DX003 (sc), vehicle: Klucel (hydroxypropylcellulose) (HPC).
Where [4] appears, read: dose: 200.0 mg/kg/injection, schedule: Q01DX010 (sc), vehicle: distilled water + Tween-80.
Where [5] appears, read: dose: 20.0 mg/kg/injection, schedule: Q04DX003 (sc), vehicle: saline.

In the case of `N[C@H](C(=O)O)[C@@H]1CC(Cl)=NO1`, the T/C runs as follows: (dose: 4.0 mg/kg/injection, schedule: Q01DX010 (sc), vehicle: saline) 3, 39, 74 [2 of 3 alive on day 11], 159 % of control; under setting [1], 33, 68, 114 % of control; under setting [2], 37 [2 of 3 alive on day 11] and 45 % of control [2 of 3 alive on day 11]. The survivor count under setting [1] is recorded as 1 of 3 on day 11; the survivor count under setting [2] is 1 of 3 on day 11; the survivor count (dose: 32.0 mg/kg/injection, schedule: Q01DX010 (sc), vehicle: saline) is 0 of 3 on day 11 and 1 of 3 on day 11; the survivor count (dose: 64.0 mg/kg/injection, schedule: Q01DX010 (sc), vehicle: saline) is on record as 0 of 3 on day 11; the survivor count (dose: 128.0 mg/kg/injection, schedule: Q01DX010 (sc), vehicle: saline) is 0 of 3 on day 11.
As for `C=CCOCC1CO1` (stereo not given), where the note is “dose: 800.0 mg/kg/injection, schedule: Q01DX010 (sc), vehicle: saline”, the survivor count is on record as 0 of 3 on day 11.
For the molecule `CC(C)CCCCCCCCCCCCC(=O)NCC(=O)NC1C(C)OC(Nc2ncnc3nc[nH]c23)C(O)C1O` (stereo not given), the survivor count (dose: 16.0 mg/kg/injection, schedule: Q01DX010 (sc), vehicle: distilled water + Tween-80) is 2 of 6 on day 11 and 3 of 6 on day 11; the survivor count (dose: 32.0 mg/kg/injection, schedule: Q01DX010 (sc), vehicle: distilled water + Tween-80) is on record as 2 of 6 on day 11.
On to `CC(=O)OCc1cc(=O)n(C)c2c3c4c(cc12)c(C)cc(=O)n4CO3`, for which, where the note is “dose: 25.0 mg/kg/injection, schedule: Q01DX010 (sc), vehicle: Klucel (hydroxypropylcellulose) (HPC)”, the survivor count was 2 of 4 on day 11.
For the molecule `CCCCCCCCCCCCCCCC(=O)OCC1OC(n2ccc(N)nc2=O)C(O)C1O` (stereo not given), the T/C was 130 % of control (dose: 50.0 mg/kg/injection, schedule: Q04DX003 (sc), vehicle: saline with Tween-80) and 134 % of control (dose: 100.0 mg/kg/injection, schedule: Q04DX003 (sc), vehicle: saline with Tween-80). Also, the survivor count reads like this: (dose: 300.0 mg/kg/injection, schedule: Q04DX003 (sc), vehicle: saline with Tween-80) 2 of 6 on day 11; (dose: 400.0 mg/kg/injection, schedule: Q04DX003 (sc), vehicle: saline with Tween-80) 1 of 3 on day 11; (dose: 600.0 mg/kg/injection, schedule: Q04DX003 (sc), vehicle: saline with Tween-80) 0 of 6 on day 11.
As for `CC1=C(/C=C/C(C)=C/C=C/C(C)=C/CO)C(C)(C)CCC1`, the T/C (dose: 200.0 mg/kg/injection, schedule: Q04DX003 (sc), vehicle: saline with Tween-80) was 128 % of control.
Turning to `CN(C)[C@@H]1C(=O)C(C(N)=O)=C(O)[C@@]2(O)C(=O)C3=C(O)c4c(O)ccc(Cl)c4[C@@](C)(O)[C@H]3C[C@@H]12`, the T/C (dose: 2400.0 mg/kg/injection, schedule: Q04DX003 (sc), vehicle: saline) is 135 % of control.
For `Cn1cnc([N+](=O)[O-])c1Sc1ncn[nH]1`, the survivor count (dose: 800.0 mg/kg/injection, schedule: Q04DX003 (sc), vehicle: suspension in saline) is recorded as 0 of 6 on day 11.
As for `Cn1cc(C2NC(=O)c3ccccc3N2)c2ccccc21` (stereo not given), under setting [3], the survivor count is on record as 0 of 6 on day 11.
On to `COC1CC(C)C(OC)c2cc(O)cc(c2O)NC(=O)/C(C)=C/C=C\C(C)C(OC(N)=O)/C(C)=C\C(C)C1OC` (stereo not given), for which the survivor count (dose: 200.0 mg/kg/injection, schedule: Q04DX003 (sc), vehicle: saline + alcohol) was 3 of 6 on day 11.
In the case of `CC1(C)CC1(Br)Br`, the survivor count was 1 of 3 on day 11 (dose: 400.0 mg/kg/injection, schedule: Q01DX010 (sc), vehicle: saline with Tween-80) and 1 of 3 on day 11 (dose: 800.0 mg/kg/injection, schedule: Q01DX010 (sc), vehicle: saline with Tween-80).
`c1ccc([C@H]2CN3CCSC3=N2)cc1`: the survivor count is listed as 0 of 6 on day 11 (dose: 120.0 mg/kg/injection, schedule: Q04DX003 (sc), vehicle: saline) and 0 of 6 on day 11 (dose: 240.0 mg/kg/injection, schedule: Q04DX003 (sc), vehicle: saline).
Regarding `N=C(N)Sc1ccccn1`, the T/C (dose: 12.5 mg/kg/injection, schedule: Q01DX010 (sc), vehicle: saline) was 138 % of control.
In the case of `CC(C)NC(=O)OCc1c(COC(=O)NC(C)C)c(-c2ccc(Cl)c(Cl)c2)n2c1CCC2`, the T/C reads like this: (dose: 25.0 mg/kg/injection, schedule: Q01DX010 (sc), vehicle: distilled water + Tween-80) 126 % of control; (dose: 100.0 mg/kg/injection, schedule: Q01DX010 (sc), vehicle: distilled water + Tween-80) 29, 40, 68 [2 of 3 alive on day 11], 82, 94 % of control; under setting [4], 15 [2 of 3 alive on day 11], 16, 44 [5 of 6 alive on day 11], 61 % of control; (dose: 400.0 mg/kg/injection, schedule: Q01DX010 (sc), vehicle: distilled water + Tween-80) 18 [2 of 3 alive on day 11], 21, 21 [2 of 3 alive on day 11], 51 % of control [5 of 6 alive on day 11]. The survivor count under setting [4] was 1 of 3 on day 11.
As to `C=C[Si]12OCCN(CCO1)CCO2`, under setting [3], the T/C is 136 % of control.
As to `[Cl][Sn]([c]1ccccc1)[c]1ccccc1`, the T/C is 131 % of control (dose: 300.0 mg/kg/injection, schedule: Q04DX003 (sc), vehicle: saline) and 145 % of control (dose: 1200.0 mg/kg/injection, schedule: Q04DX003 (sc), vehicle: saline).
In the case of `C1CN(P2(N3CC3)=NP(N3CC3)(N3CC3)=NP(N3CC3)(N3CC3)=N2)CCO1` (stereo not given), the T/C (dose: 12.5 mg/kg/injection, schedule: Q04DX003 (sc), vehicle: saline) was 142 % of control. Also, the survivor count (dose: 50.0 mg/kg/injection, schedule: Q01DX010 (sc), vehicle: saline) is given as 0 of 6 on day 11; the survivor count (dose: 100.0 mg/kg/injection, schedule: Q01DX010 (sc), vehicle: saline) was 0 of 6 on day 11; the survivor count (dose: 100.0 mg/kg/injection, schedule: Q04DX003 (sc), vehicle: saline) is recorded as 2 of 6 on day 11; the survivor count (dose: 200.0 mg/kg/injection, schedule: Q04DX003 (sc), vehicle: saline) is 0 of 6 on day 11.
In the case of `COC1=NCN=C2SC=C(N)N=C12`, the T/C (dose: 75.0 mg/kg/injection, schedule: Q04DX003 (sc), vehicle: suspension in saline) was 147 % of control. The survivor count is reported as 0 of 6 on day 11 (dose: 300.0 mg/kg/injection, schedule: Q04DX003 (sc), vehicle: suspension in saline) and 0 of 6 on day 11 (dose: 600.0 mg/kg/injection, schedule: Q04DX003 (sc), vehicle: suspension in saline).
As to `N=C(N)CCCCCCCCC(=N)N`, for the setting “dose: 37.5 mg/kg/injection, schedule: Q04DX003 (sc), vehicle: saline”, the survivor count is reported as 0 of 6 on day 11.
As for `CC(C)[C@](O)(C(=O)OCC1=CC[N+]2([O-])CC[C@@H](O)[C@@H]12)[C@H](C)O` (stereo not given in full), the survivor count (dose: 800.0 mg/kg/injection, schedule: Q01DX010 (sc), vehicle: water) is 1 of 3 on day 11.
Consider `O=NN(CCCl)C(=O)NC1[C@H](O)CCC[C@@H]1O` (stereo not given in full), for which the T/C by setting is: (dose: 10.0 mg/kg/injection, schedule: Q04DX003 (sc), vehicle: saline) -40, 2, 5, 12 % of control [5 of 6 alive on day 11]; under setting [5], -88, -85 [4 of 6 alive on day 11], -38 % of control. For the same molecule, the survivor count runs as follows: under setting [5], 1 of 4 on day 11; (dose: 40.0 mg/kg/injection, schedule: Q04DX003 (sc), vehicle: saline) 0 of 6 on day 11; (dose: 80.0 mg/kg/injection, schedule: Q04DX003 (sc), vehicle: saline) 0 of 6 on day 11.
